Reference: publication PMC11626200
These are yes or no findings as the source states them, for the method shown. In cells and extracts the contact can be indirect. Some entries that bind do so weakly or less than the wild type.

Amino acid sequences for entries named in this document (tags omitted).
UniProt P08247: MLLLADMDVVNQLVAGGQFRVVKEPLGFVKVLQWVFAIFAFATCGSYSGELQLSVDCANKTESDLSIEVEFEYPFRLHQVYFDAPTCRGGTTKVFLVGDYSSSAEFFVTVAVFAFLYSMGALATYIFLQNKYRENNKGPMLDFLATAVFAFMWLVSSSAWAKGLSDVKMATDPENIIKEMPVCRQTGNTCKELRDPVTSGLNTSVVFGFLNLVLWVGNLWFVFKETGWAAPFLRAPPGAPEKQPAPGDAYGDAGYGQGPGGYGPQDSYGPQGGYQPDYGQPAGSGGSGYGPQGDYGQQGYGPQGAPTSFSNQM
UniProt P63027: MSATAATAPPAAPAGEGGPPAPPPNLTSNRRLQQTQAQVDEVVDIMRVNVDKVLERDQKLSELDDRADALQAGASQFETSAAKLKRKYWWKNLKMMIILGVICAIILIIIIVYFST

Target: human synaptophysin (Syp) (human) (UniProt P08247)
Test: FRET or BRET; LuTHy luminescence-based two-hybrid assay: BRET between tagged fusion proteins expressed in mammalian cells; control-corrected BRET (cBRET) ratio, cutoff >=0.03 for membrane proteins

binding: binds
Substance: vesicle-associated membrane protein 2 (VAMP2) (from UniProt P63027 1-116)
